Test: Residual ozone in wash water, Indigo Colorimetric Method
Type: physicochemical

With `O=[O+][O-]` [ozonized water, ozone] the “concentration of ozone in water” value (60 min) was 0.17 ± 0.04 mg/L, the “concentration of ozone in water” value (90 min) was 0.18 ± 0.04 mg/L and the “concentration of ozone in water” value (120 min) was 0.23 ± 0.07 mg/L. For the same compound, the “average concentration of ozone in the wash water” value (at the end of treatments) was 0.2 mg/L.
